Measured data: PubChem BioAssay AID1053208 (Peter MacCallum Cancer Centre, 2014)
In all, the deposit lists about 17,000 reagents; below is a random part of them. 788 of them (4.7%) count as active. 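Calls rest on z-score classes alone; an extra cut-off of viability at most 70% of control was not applied to them.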 A number with no mark means an inactive call. Reagents against one gene are numbered here. No sequences are given here.

Purpose: 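Find knock-downs that sensitise mouse osteosarcoma cells to doxorubicin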 (primary screen)
Cell system: mouse osteosarcoma cells, early-passage culture from an engineered mouse model of fibroblastic bone tumour
Reagents: siRNA pool against mouse genes, 40 nM
Duration: about 120 h (48 h before drug, then 72 h with drug)
Conditions: doxorubicin 100 nM for 72 h, roughly 30-40% inhibitory dose
Measurement: 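Viability read as ATP luminescence after 72 h of 100 nM doxorubicin or none, duplicate wells averaged, scaled to non-targeting siRNA, then expressed as robust z-scores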
Direction: viability z-score with doxorubicin and doxorubicin viability vs non-targeting: higher = more viable cells under doxorubicin; viability z-score without drug: higher = more viable cells with knock-down alone; z-score of drug to no-drug ratio: higher = less drug sensitisation by knock-down
Hit rule: 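a pool counts as active when its viability z-score with doxorubicin is -2 or below and its z-score without drug lies between -2 and 2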

The opening 5 records, to show the layout:
| target | pool no. | combined z-score class | viability z-score with doxorubicin | viability z-score without drug | z-score of drug to no-drug ratio | doxorubicin viability vs non-targeting |
| --- | --- | --- | --- | --- | --- | --- |
| Psme1 | 1 | no change with or without drug | 1.12 | 0 | 1.24 | 1.04 |
| Rdh13 | 1 | no change with or without drug | -1.57 | -1.01 | -0.9 | 0.8 |
| Cyp2a4 | 1 | no change with or without drug | -0.22 | -0.51 | 0.22 | 0.92 |
| Slc25a25 | 1 | no change with or without drug | 0.45 | -0.51 | 1.01 | 0.98 |
| Tbl1x | 1 | no change with or without drug | 0 | 0.51 | -0.22 | 0.94 |

The list itself, from the start:
| target | pool no. | combined z-score class | viability z-score with doxorubicin | viability z-score without drug | z-score of drug to no-drug ratio | doxorubicin viability vs non-targeting |
| --- | --- | --- | --- | --- | --- | --- |
| Psme1 | 1 | no change with or without drug | 1.12 | 0 | 1.24 | 1.04 |
| Rdh13 | 1 | no change with or without drug | -1.57 | -1.01 | -0.9 | 0.8 |
| Cyp2a4 | 1 | no change with or without drug | -0.22 | -0.51 | 0.22 | 0.92 |
| Slc25a25 | 1 | no change with or without drug | 0.45 | -0.51 | 1.01 | 0.98 |
| Tbl1x | 1 | no change with or without drug | 0 | 0.51 | -0.22 | 0.94 |
| Peli2 | 1 | no change with or without drug | -1.35 | -0.67 | -0.9 | 0.82 |
| Hsd3b4 | 1 | no change with or without drug | 1.57 | -0.34 | 2.02 | 1.08 |
| Sdc3 | 1 | no change with or without drug | 0 | 1.18 | -0.67 | 0.94 |
| Samsn1 | 1 | no change with or without drug | -0.45 | 0.51 | -0.67 | 0.9 |
| Tbpl2 | 1 | no change with or without drug | -0.9 | -1.18 | 0 | 0.86 |
| Slc25a31 | 1 | no change with or without drug | -0.67 | -1.85 | 0.79 | 0.88 |
| Ermn | 1 | no change with or without drug | -0.45 | 1.01 | -1.01 | 0.9 |
| Or8g18 | 1 | no change with or without drug | -1.24 | -1.01 | -0.56 | 0.83 |
| Tkfc | 1 | no change with or without drug | 0.9 | 0.51 | 0.67 | 1.02 |
| Adsl | 1 | no change with or without drug | 1.8 | 0.51 | 1.57 | 1.1 |
| Mapk7 | 1 | high cell count with doxorubicin only | 2.25 | 1.01 | 1.69 | 1.14 |
| Or10u3 | 1 | no change with or without drug | 0.56 | 0.51 | 0.34 | 0.99 |
| Fabp7 | 1 | no change with or without drug | -1.57 | -0.51 | -1.24 | 0.8 |
| Naga | 1 | no change with or without drug | 1.12 | 0.34 | 1.01 | 1.04 |
| Lmf1 | 1 | no change with or without drug | -0.67 | 1.18 | -1.35 | 0.88 |
| Rer1 | 1 | no change with or without drug | 0.56 | 0.34 | 0.45 | 0.99 |
| Il1a | 1 | no change with or without drug | 0.67 | -0.34 | 1.12 | 1 |
| Hhipl2 | 1 | low cell count with doxorubicin only (active) | -3.04 | 0.67 | -3.37 | 0.67 |
| Ppp4r3b | 1 | no change with or without drug | 0.9 | 1.01 | 0.34 | 1.02 |
| Mycn | 1 | no change with or without drug | 0.45 | -0.84 | 1.24 | 0.98 |
| AY036118 | 1 | no change with or without drug | 0.11 | -0.67 | 0.67 | 0.95 |
| Mep1b | 1 | no change with or without drug | -0.34 | 0.17 | -0.34 | 0.91 |
| Tlr11 | 1 | no change with or without drug | -0.22 | 0.17 | -0.22 | 0.92 |
| Entpd3 | 1 | no change with or without drug | -0.45 | 0.34 | -0.56 | 0.9 |
| Obsl1 | 1 | no change with or without drug | -0.56 | -1.01 | 0.22 | 0.89 |
| Unc13a | 1 | no change with or without drug | 1.8 | 0.17 | 1.91 | 1.1 |
| Fam53b | 1 | no change with or without drug | 0.67 | 1.18 | 0 | 1 |
| Gjb2 | 1 | no change with or without drug | -0.22 | -0.51 | 0.22 | 0.92 |
| Aldh3b3 | 1 | high cell count without drug only | 0 | 2.02 | -1.12 | 0.94 |
| Aldh3b3 | 2 | no change with or without drug | -0.34 | -0.84 | 0.34 | 0.91 |
| Or2h2 | 1 | no change with or without drug | 0.22 | -0.84 | 1.01 | 0.96 |
| Hba-a1 | 1 | no change with or without drug | -0.45 | -0.51 | 0 | 0.9 |
| Or10v5 | 1 | no change with or without drug | 0.45 | 0.17 | 0.45 | 0.98 |
| Mypop | 1 | no change with or without drug | 0 | 0.51 | -0.22 | 0.94 |
| Surf6 | 1 | no change with or without drug | 0.22 | 0.84 | -0.22 | 0.96 |
| Gm5084 | 1 | no change with or without drug | 1.46 | 0.84 | 1.01 | 1.07 |
| Mthfd2 | 1 | no change with or without drug | 0.34 | 0.67 | 0 | 0.97 |
| 2010106E10Rik | 1 | no change with or without drug | -0.22 | 0.34 | -0.34 | 0.92 |
| Sgk2 | 1 | no change with or without drug | -1.57 | -0.51 | -1.24 | 0.8 |
| Amh | 1 | no change with or without drug | 1.46 | -0.84 | 2.36 | 1.07 |
| Fhip1a | 1 | no change with or without drug | 0 | -0.17 | 0.22 | 0.94 |
| Rnf146 | 1 | no change with or without drug | 0 | 0.67 | -0.34 | 0.94 |
| C730014E05Rik | 1 | no change with or without drug | -0.9 | -0.51 | -0.56 | 0.86 |
| Nudt16l1 | 1 | no change with or without drug | 0 | 1.52 | -0.9 | 0.94 |
| Trim13 | 1 | no change with or without drug | -0.9 | 1.18 | -1.57 | 0.86 |
